# Paper PMC9098222
# No constants are given. Whether binding was seen depends on the method and setting. In cells and extracts the contact can be indirect. Some binding calls cover weakened binding; strength is not graded here. Where a sequence is shown, tags or fusion partners need not be part of it.
# T1: Myc-tagged IRS4 (insulin receptor substrate 4), full-length (human) (UniProt O14654)
# T1 sequence: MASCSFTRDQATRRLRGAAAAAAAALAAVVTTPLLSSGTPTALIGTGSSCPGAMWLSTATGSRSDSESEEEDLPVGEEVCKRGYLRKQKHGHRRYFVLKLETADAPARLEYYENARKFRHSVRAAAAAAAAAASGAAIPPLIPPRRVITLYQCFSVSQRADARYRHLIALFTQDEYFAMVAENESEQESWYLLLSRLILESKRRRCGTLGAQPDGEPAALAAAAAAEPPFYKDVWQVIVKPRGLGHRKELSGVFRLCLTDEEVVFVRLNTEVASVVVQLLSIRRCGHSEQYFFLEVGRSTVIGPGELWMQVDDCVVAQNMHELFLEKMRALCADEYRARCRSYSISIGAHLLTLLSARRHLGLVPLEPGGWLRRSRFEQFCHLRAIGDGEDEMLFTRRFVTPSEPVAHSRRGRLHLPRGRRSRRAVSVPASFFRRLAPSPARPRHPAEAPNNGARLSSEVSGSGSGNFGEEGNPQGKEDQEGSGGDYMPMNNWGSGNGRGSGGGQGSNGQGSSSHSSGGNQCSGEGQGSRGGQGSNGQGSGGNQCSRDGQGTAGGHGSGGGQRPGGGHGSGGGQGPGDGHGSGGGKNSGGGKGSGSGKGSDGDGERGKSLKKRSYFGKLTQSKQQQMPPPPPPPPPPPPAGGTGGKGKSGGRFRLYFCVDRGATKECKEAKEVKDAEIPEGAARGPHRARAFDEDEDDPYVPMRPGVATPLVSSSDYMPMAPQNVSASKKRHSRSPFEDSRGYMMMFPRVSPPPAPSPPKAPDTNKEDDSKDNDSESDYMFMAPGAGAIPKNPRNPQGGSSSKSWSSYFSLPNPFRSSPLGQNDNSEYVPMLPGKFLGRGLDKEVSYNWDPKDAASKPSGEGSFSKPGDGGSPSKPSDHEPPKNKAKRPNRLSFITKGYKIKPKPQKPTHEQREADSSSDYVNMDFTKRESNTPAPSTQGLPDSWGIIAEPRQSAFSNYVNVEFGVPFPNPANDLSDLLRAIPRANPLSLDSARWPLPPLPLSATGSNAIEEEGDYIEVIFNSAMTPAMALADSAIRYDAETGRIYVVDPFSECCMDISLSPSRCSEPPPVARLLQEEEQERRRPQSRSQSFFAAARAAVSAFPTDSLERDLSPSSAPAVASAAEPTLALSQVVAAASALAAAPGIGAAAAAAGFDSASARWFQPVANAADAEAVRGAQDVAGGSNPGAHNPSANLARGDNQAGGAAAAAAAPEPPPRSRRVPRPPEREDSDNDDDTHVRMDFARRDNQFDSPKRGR
# T2: Myc-tagged IRS4 1–200 (PH domain only) (human) (UniProt O14654)
# T2 sequence: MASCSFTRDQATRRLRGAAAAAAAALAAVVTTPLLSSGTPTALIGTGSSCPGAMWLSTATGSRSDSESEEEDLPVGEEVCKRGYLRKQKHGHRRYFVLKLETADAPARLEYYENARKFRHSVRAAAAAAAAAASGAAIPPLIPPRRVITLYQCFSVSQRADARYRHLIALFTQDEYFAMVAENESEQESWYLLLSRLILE
# How the values were obtained:
# [1] = biological target: T1, Myc-tagged IRS4 (insulin receptor substrate 4), full-length (human); experiment: co-IP; HEK293FT cells transiently co-transfected; lysis in 20 mM HEPES pH 7.5, 150 mM NaCl, 1% Nonidet P-40, 1 mM sodium orthovanadate; Myc-tagged IRS4 form precipitated with anti-Myc resin, partners found by immunoblot; some panels with or without co-expressed FLAG-IRS1, FLAG-PIK3R1 or FER
# [2] = biological target: T2, Myc-tagged IRS4 1–200 (PH domain only) (human); experiment: as above
Binder,binding [1],binding [2]
"FER QPVY motif deletion mutant (Δ631–634) (enzyme, UniProt P16591) MGFGSDLKNSHEAVLKLQDWELRLLETVKKFMALRIKSDKEYASTLQNLCNQVDKESTVQMNYVSNVSKSWLLMIQQTEQLSRIMKTHAEDLNSGPLHRLTMMIKDKQQVKKSYIGVHQQIEAEMIKVTKTELEKLKCSYRQLIKEMNSAKEKYKEALAKGKETEKAKERYDKATMKLHMLHNQYVLALKGAQLHQNQYYDITLPLLLDSLQKMQEEMIKALKGIFDEYSQITSLVTEEIVNVHKEIQMSVEQIDPSTEYNNFIDVHRTTAAKEQEIEFDTSLLEENENLQANEIMWNNLTAESLQVMLKTLAEELMQTQQMLLNKEEAVLELEKRIEESSETCEKKSDIVLLLSQKQALEELKQSVQQLRCTEAKFSAQKELLEQKVQENDGKEPPPVVNYEEDARSVTSMERKERLSKFESIRHSIAGIIRSPKSALGSSALSDMISISEKPLAEQDWYHGAIPRIEAQELLKKQGDFLVRESHGKPGEYVLSVYSDGQRRHFIIQYVDNMYRFEGTGFSNIPQLIDHHYTTKQVITKKSGVVLLNPIPKDKKWILSHEDVILGELLGKGNFGEVYKGTLKDKTSVAVKTCKEDLPQELKIKFLQEAKILKQYDHPNIVKLIGVCTQRIIMELVSGGDFLTFLRRKKDELKLKQLVKFSLDAAAGMLYLESKNCIHRDLAARNCLVGENNVLKISDFGMSRQEDGGVYSSSGLKQIPIKWTAPEALNYGRYSSESDVWSFGILLWETFSLGVCPYPGMTNQQAREQVERGYRMSAPQHCPEDISKIMMKCWDYKPENRPKFSELQKELTIIKRKLT",binds,
"FER E676R (single mutant, made from pEGFP-FER) (enzyme, UniProt P16591 1-822) MGFGSDLKNSHEAVLKLQDWELRLLETVKKFMALRIKSDKEYASTLQNLCNQVDKESTVQMNYVSNVSKSWLLMIQQTEQLSRIMKTHAEDLNSGPLHRLTMMIKDKQQVKKSYIGVHQQIEAEMIKVTKTELEKLKCSYRQLIKEMNSAKEKYKEALAKGKETEKAKERYDKATMKLHMLHNQYVLALKGAQLHQNQYYDITLPLLLDSLQKMQEEMIKALKGIFDEYSQITSLVTEEIVNVHKEIQMSVEQIDPSTEYNNFIDVHRTTAAKEQEIEFDTSLLEENENLQANEIMWNNLTAESLQVMLKTLAEELMQTQQMLLNKEEAVLELEKRIEESSETCEKKSDIVLLLSQKQALEELKQSVQQLRCTEAKFSAQKELLEQKVQENDGKEPPPVVNYEEDARSVTSMERKERLSKFESIRHSIAGIIRSPKSALGSSALSDMISISEKPLAEQDWYHGAIPRIEAQELLKKQGDFLVRESHGKPGEYVLSVYSDGQRRHFIIQYVDNMYRFEGTGFSNIPQLIDHHYTTKQVITKKSGVVLLNPIPKDKKWILSHEDVILGELLGKGNFGEVYKGTLKDKTSVAVKTCKEDLPQELKIKFLQEAKILKQYDHPNIVKLIGVCTQRQPVYIIMELVSGGDFLTFLRRKKDELKLKQLVKFSLDAAAGMLYLRSKNCIHRDLAARNCLVGENNVLKISDFGMSRQEDGGVYSSSGLKQIPIKWTAPEALNYGRYSSESDVWSFGILLWETFSLGVCPYPGMTNQQAREQVERGYRMSAPQHCPEDISKIMMKCWDYKPENRPKFSELQKELTIIKRKLT",binds,binds
"FER-K591R (kinase-dead mutant) (enzyme, UniProt P16591 1-822) MGFGSDLKNSHEAVLKLQDWELRLLETVKKFMALRIKSDKEYASTLQNLCNQVDKESTVQMNYVSNVSKSWLLMIQQTEQLSRIMKTHAEDLNSGPLHRLTMMIKDKQQVKKSYIGVHQQIEAEMIKVTKTELEKLKCSYRQLIKEMNSAKEKYKEALAKGKETEKAKERYDKATMKLHMLHNQYVLALKGAQLHQNQYYDITLPLLLDSLQKMQEEMIKALKGIFDEYSQITSLVTEEIVNVHKEIQMSVEQIDPSTEYNNFIDVHRTTAAKEQEIEFDTSLLEENENLQANEIMWNNLTAESLQVMLKTLAEELMQTQQMLLNKEEAVLELEKRIEESSETCEKKSDIVLLLSQKQALEELKQSVQQLRCTEAKFSAQKELLEQKVQENDGKEPPPVVNYEEDARSVTSMERKERLSKFESIRHSIAGIIRSPKSALGSSALSDMISISEKPLAEQDWYHGAIPRIEAQELLKKQGDFLVRESHGKPGEYVLSVYSDGQRRHFIIQYVDNMYRFEGTGFSNIPQLIDHHYTTKQVITKKSGVVLLNPIPKDKKWILSHEDVILGELLGKGNFGEVYKGTLKDKTSVAVRTCKEDLPQELKIKFLQEAKILKQYDHPNIVKLIGVCTQRQPVYIIMELVSGGDFLTFLRRKKDELKLKQLVKFSLDAAAGMLYLESKNCIHRDLAARNCLVGENNVLKISDFGMSRQEDGGVYSSSGLKQIPIKWTAPEALNYGRYSSESDVWSFGILLWETFSLGVCPYPGMTNQQAREQVERGYRMSAPQHCPEDISKIMMKCWDYKPENRPKFSELQKELTIIKRKLT",binds,

# Further lines, results first:
binding [1],binding [2],Binder
binds,binds,"FER D684R (single mutant, made from pEGFP-FER) (enzyme, UniProt P16591 1-822) MGFGSDLKNSHEAVLKLQDWELRLLETVKKFMALRIKSDKEYASTLQNLCNQVDKESTVQMNYVSNVSKSWLLMIQQTEQLSRIMKTHAEDLNSGPLHRLTMMIKDKQQVKKSYIGVHQQIEAEMIKVTKTELEKLKCSYRQLIKEMNSAKEKYKEALAKGKETEKAKERYDKATMKLHMLHNQYVLALKGAQLHQNQYYDITLPLLLDSLQKMQEEMIKALKGIFDEYSQITSLVTEEIVNVHKEIQMSVEQIDPSTEYNNFIDVHRTTAAKEQEIEFDTSLLEENENLQANEIMWNNLTAESLQVMLKTLAEELMQTQQMLLNKEEAVLELEKRIEESSETCEKKSDIVLLLSQKQALEELKQSVQQLRCTEAKFSAQKELLEQKVQENDGKEPPPVVNYEEDARSVTSMERKERLSKFESIRHSIAGIIRSPKSALGSSALSDMISISEKPLAEQDWYHGAIPRIEAQELLKKQGDFLVRESHGKPGEYVLSVYSDGQRRHFIIQYVDNMYRFEGTGFSNIPQLIDHHYTTKQVITKKSGVVLLNPIPKDKKWILSHEDVILGELLGKGNFGEVYKGTLKDKTSVAVKTCKEDLPQELKIKFLQEAKILKQYDHPNIVKLIGVCTQRQPVYIIMELVSGGDFLTFLRRKKDELKLKQLVKFSLDAAAGMLYLESKNCIHRRLAARNCLVGENNVLKISDFGMSRQEDGGVYSSSGLKQIPIKWTAPEALNYGRYSSESDVWSFGILLWETFSLGVCPYPGMTNQQAREQVERGYRMSAPQHCPEDISKIMMKCWDYKPENRPKFSELQKELTIIKRKLT"
binds,,"FER Y634F (enzyme, UniProt P16591 1-822) MGFGSDLKNSHEAVLKLQDWELRLLETVKKFMALRIKSDKEYASTLQNLCNQVDKESTVQMNYVSNVSKSWLLMIQQTEQLSRIMKTHAEDLNSGPLHRLTMMIKDKQQVKKSYIGVHQQIEAEMIKVTKTELEKLKCSYRQLIKEMNSAKEKYKEALAKGKETEKAKERYDKATMKLHMLHNQYVLALKGAQLHQNQYYDITLPLLLDSLQKMQEEMIKALKGIFDEYSQITSLVTEEIVNVHKEIQMSVEQIDPSTEYNNFIDVHRTTAAKEQEIEFDTSLLEENENLQANEIMWNNLTAESLQVMLKTLAEELMQTQQMLLNKEEAVLELEKRIEESSETCEKKSDIVLLLSQKQALEELKQSVQQLRCTEAKFSAQKELLEQKVQENDGKEPPPVVNYEEDARSVTSMERKERLSKFESIRHSIAGIIRSPKSALGSSALSDMISISEKPLAEQDWYHGAIPRIEAQELLKKQGDFLVRESHGKPGEYVLSVYSDGQRRHFIIQYVDNMYRFEGTGFSNIPQLIDHHYTTKQVITKKSGVVLLNPIPKDKKWILSHEDVILGELLGKGNFGEVYKGTLKDKTSVAVKTCKEDLPQELKIKFLQEAKILKQYDHPNIVKLIGVCTQRQPVFIIMELVSGGDFLTFLRRKKDELKLKQLVKFSLDAAAGMLYLESKNCIHRDLAARNCLVGENNVLKISDFGMSRQEDGGVYSSSGLKQIPIKWTAPEALNYGRYSSESDVWSFGILLWETFSLGVCPYPGMTNQQAREQVERGYRMSAPQHCPEDISKIMMKCWDYKPENRPKFSELQKELTIIKRKLT"
binds,,"GFP-FER 447–822 (SH2+ kinase domains) (domain or fragment, UniProt P16591 447-822) MISISEKPLAEQDWYHGAIPRIEAQELLKKQGDFLVRESHGKPGEYVLSVYSDGQRRHFIIQYVDNMYRFEGTGFSNIPQLIDHHYTTKQVITKKSGVVLLNPIPKDKKWILSHEDVILGELLGKGNFGEVYKGTLKDKTSVAVKTCKEDLPQELKIKFLQEAKILKQYDHPNIVKLIGVCTQRQPVYIIMELVSGGDFLTFLRRKKDELKLKQLVKFSLDAAAGMLYLESKNCIHRDLAARNCLVGENNVLKISDFGMSRQEDGGVYSSSGLKQIPIKWTAPEALNYGRYSSESDVWSFGILLWETFSLGVCPYPGMTNQQAREQVERGYRMSAPQHCPEDISKIMMKCWDYKPENRPKFSELQKELTIIKRKLT"
